PubChem BioAssay AID493246 – Drosophila RNAi Screening Center | 2011

Assay: 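Genome-wide search for dsRNAs that reduce cell number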 (primary screen)
Cell system: Drosophila Kc and S2R+ cells
Reagents: long dsRNA against Drosophila genes
Read-out: 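Raw, unnormalised count of remaining cells in each well; per-plate z-scores of cell number underlie the calls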
Scale: Kc cell number and S2R+ cell number: higher = more cells remaining
Call rule: 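Counted as a hit if cell number falls by a z-score of at least 3 within its plate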
The screen tested about 21,000 reagents; this is a random part of those with a known target gene and a result. In the full data, 429 (2%) were called active. 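Values are raw and not normalised between plates; calls rest on per-plate z-scores that were not deposited.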 Unmarked entries are inactive. The record does not give: the amount of reagent, the time to read-out.

predicted target,dsRNA,"Kc cell number, rep 1","Kc cell number, rep 2","S2R+ cell number, rep 1","S2R+ cell number, rep 2"
CG1620,DRSC06603,1.32e6,1.38e6,9.20e5,1.00e6
Acat2 (Acetyl-CoA acetyltransferase 2),DRSC08630,1.61e6,1.48e6,9.93e5,1.31e6
CG16888,DRSC02541,1.60e6,1.62e6,1.32e6,1.45e6
Ugt36A1 (UDP-glycosyltransferase family 36 member A1),DRSC00748,1.69e6,1.72e6,1.27e6,1.45e6
Dis3l2 (Dis3 like 3'-5' exoribonuclease 2),DRSC08496,1.32e6,1.36e6,1.28e6,1.24e6
CG13870,DRSC06429,1.64e6,1.64e6,1.14e6,1.64e6
Atu (Another transcription unit),DRSC12123,1.67e6,1.77e6,1.21e6,1.24e6
CG7430,DRSC10845,1.30e6,1.33e6,1.14e6,1.19e6
NdufA3 (NADH:ubiquinone oxidoreductase subunit A3),DRSC18431,1.69e6,1.63e6,8.50e5,9.56e5
Hrb87F (Heterogeneous nuclear ribonucleoprotein at 87F),DRSC16708,1.54e6,1.55e6,1.08e6,1.22e6
CG11892,DRSC14428,5.02e5,,8.12e5,
CG11449,DRSC11662,1.64e6,1.59e6,1.37e6,1.46e6
CG15514,DRSC15053,5.08e5,,8.56e5,
Ugt35A1 (UDP-glycosyltransferase family 35 member A1),DRSC16892,1.60e6,1.66e6,1.43e6,1.53e6
CG15563,DRSC15101,1.70e6,1.80e6,1.12e6,1.23e6
eIF3a (eukaryotic translation initiation factor 3 subunit a),DRSC12339,1.32e6 (active),1.40e6,8.21e5,9.31e5
TppII (Tripeptidyl-peptidase II),DRSC07565,1.47e6,1.49e6,1.20e6,1.13e6
CG43102,DRSC14797,1.50e6,1.65e6,1.02e6,1.04e6
CG43102,DRSC16239,1.13e6,1.27e6,9.80e5,1.09e6
CG9812,DRSC04566,1.49e6,1.62e6,1.20e6,1.34e6
CG4853,DRSC06898,1.41e6,1.46e6,1.20e6,1.15e6
CG13728,DRSC10056,1.57e6,1.56e6,1.29e6,1.42e6
E(var)3-9 (Enhancer of variegation 3-9),DRSC14451,1.54e6,1.64e6,1.29e6,1.40e6
Fer2LCH (Ferritin 2 light chain homologue),DRSC16672,1.42e6,1.40e6,9.44e5,1.05e6
mus301 (mutagen-sensitive 301),DRSC10939,1.64e6,1.69e6,1.01e6,1.00e6
mars,DRSC06656,1.39e6,1.46e6,9.67e5,1.10e6
shi (shibire),DRSC20373,6.16e5,,9.31e5,
Exo70 (Exocyst 70),DRSC10774,1.55e6,1.49e6,1.17e6,1.23e6
yellow-e,DRSC12966,1.48e6,1.61e6,1.05e6,1.18e6
yellow-e,DRSC16563,1.36e6,1.53e6,1.09e6,1.20e6
Ir47a (Ionotropic receptor 47a),DRSC06215,1.57e6,1.62e6,1.38e6,1.43e6
Cubn2 (Cubilin 2),DRSC10561,1.75e6,1.68e6,1.42e6,1.58e6
CG5639,DRSC15851,1.49e6,1.60e6,9.93e5,1.19e6
Tom (Twin of m4),DRSC11306,1.75e6,1.76e6,1.43e6,1.39e6
CG5323,DRSC06929,1.57e6,1.63e6,1.19e6,1.29e6
Itgbn (Integrin betanu subunit),DRSC03493,1.69e6,1.97e6,1.48e6,5.58e5
CG33752,DRSC05351,1.47e6,1.44e6,9.80e5,1.14e6
CG3065,DRSC04333,1.31e6,1.36e6,9.36e5,1.04e6
CG32523,DRSC20510,1.55e6,1.54e6,1.14e6,1.27e6
Agpat1 (1-Acylglycerol-3-phosphate O-acyltransferase 1),DRSC19879,1.59e6,1.49e6,1.03e6,1.12e6
Agpat1 (1-Acylglycerol-3-phosphate O-acyltransferase 1),DRSC19880,1.62e6,1.53e6,1.04e6,1.08e6
CG12942,DRSC06253,1.25e6,1.38e6,7.88e5,9.32e5
Targ3 (Terminal ADP-ribose protein glycohydrolase 3),DRSC11471,1.53e6,1.85e6,1.16e6,1.35e6
SCAP (SREBP cleavage activating protein),DRSC04869,1.82e6,1.93e6,1.26e6,1.42e6
SCAP (SREBP cleavage activating protein),DRSC04907,1.72e6,1.84e6,1.38e6,1.52e6
Srp14 (Signal recognition particle 14),DRSC15797,1.35e6,1.34e6,1.05e6,1.14e6
HisCl1 (Histamine-gated chloride channel subunit 1),DRSC14945,1.46e6,1.51e6,1.24e6,1.23e6
tous (testes of unusual size),DRSC04464,1.39e6,1.46e6,1.19e6,1.23e6
Mip (Myoinhibiting peptide precursor),DRSC10639,1.36e6,1.45e6,1.06e6,1.14e6
Cyp40 (Cyclophilin 40),DRSC10980,1.42e6,1.46e6,1.35e6,1.30e6
CG34149,DRSC14537,1.44e6,1.55e6,1.12e6,1.14e6
"E(spl)m2-BFM (Enhancer of split m2, Bearded family member)",DRSC16991,1.44e6,1.43e6,7.10e5,8.45e5
CG8475,DRSC03091,1.27e6,1.28e6,5.93e5,8.87e5
Jon25Bii (Jonah 25Bii),DRSC03114,1.66e6,1.54e6,1.14e6,1.32e6
Ho (Heme oxygenase),DRSC14939,1.56e6,1.60e6,1.29e6,1.27e6
RPA2 (Replication protein A2),DRSC03184,1.24e6,1.36e6,1.01e6,1.03e6
Wdr92 (WD repeat domain 92),DRSC10187,1.33e6,1.45e6,1.26e6,1.32e6
Jhbp12 (Juvenile hormone binding protein 12),DRSC14621,1.63e6,1.69e6,1.10e6,1.20e6
CG6230,DRSC01989,1.29e6,1.35e6,1.13e6,1.21e6
Rubicon,DRSC17889,1.57e6,1.55e6,1.08e6,1.24e6
Srpk79D (Serine-arginine protein kinase at 79D),DRSC11668,1.75e6,1.71e6,1.40e6,1.41e6
Srpk79D (Serine-arginine protein kinase at 79D),DRSC11856,1.43e6,1.43e6,1.30e6,1.40e6
AIF (Apoptosis inducing factor),DRSC00696,1.24e6,1.23e6,7.91e5,7.90e5
scb (scab),DRSC05542,1.42e6,1.39e6,9.83e5,1.14e6
scb (scab),DRSC07678,1.56e6,1.58e6,1.33e6,1.53e6
Grip91 (Gamma-tubulin ring protein 91),DRSC20249,5.92e5,,9.09e5,
Cap-G (Chromosome associated protein G),DRSC06652,1.68e6,1.63e6,1.38e6,1.46e6
Cap-G (Chromosome associated protein G),DRSC06653,1.68e6,1.65e6,1.31e6,1.55e6
eve (even skipped),DRSC07614,1.68e6,1.73e6,1.43e6,1.52e6
CG13544,DRSC04186,1.59e6,1.67e6,1.39e6,1.49e6
CG8136,DRSC16385,1.35e6,1.57e6,1.20e6,1.30e6
Vha16-1 (Vacuolar H[+] ATPase 16kD subunit 1),DRSC05020,1.56e6,1.62e6,1.35e6,1.49e6
CG14667,DRSC12253,1.51e6,1.70e6,1.32e6,1.42e6
CG34038,DRSC04039,1.42e6,1.45e6,9.62e5,1.04e6
CG2006,DRSC15412,5.50e5,,7.16e5,

9 entries already listed, arranged by “Kc cell number, rep 1”, highest first.
predicted target,dsRNA,"Kc cell number, rep 1","Kc cell number, rep 2","S2R+ cell number, rep 1","S2R+ cell number, rep 2"
Ugt36A1 (UDP-glycosyltransferase family 36 member A1),DRSC00748,1.69e6,1.72e6,1.27e6,1.45e6
NdufA3 (NADH:ubiquinone oxidoreductase subunit A3),DRSC18431,1.69e6,1.63e6,8.50e5,9.56e5
Atu (Another transcription unit),DRSC12123,1.67e6,1.77e6,1.21e6,1.24e6
CG13870,DRSC06429,1.64e6,1.64e6,1.14e6,1.64e6
CG11449,DRSC11662,1.64e6,1.59e6,1.37e6,1.46e6
Hrb87F (Heterogeneous nuclear ribonucleoprotein at 87F),DRSC16708,1.54e6,1.55e6,1.08e6,1.22e6
Dis3l2 (Dis3 like 3'-5' exoribonuclease 2),DRSC08496,1.32e6,1.36e6,1.28e6,1.24e6
CG7430,DRSC10845,1.30e6,1.33e6,1.14e6,1.19e6
CG11892,DRSC14428,5.02e5,,8.12e5,
